{"source": "patent US9981059B2", "about": "(Glytech, Inc., priority 2013, dated 2018)", "assay": "general procedure: Fmoc solid-phase peptide synthesis; Rink amide PEGA resin; HCTU/DIPEA", "settings": "conjugation step"}
{"substance": "C(DiGlcNAc)-(RATARAEA)2", "values": [{"measurement": "conjugation yield", "value": "yield 68%"}]}
